Results taken from PubChem BioAssay AID651640 (Broad Institute, 2012).
Among all 350,000 compounds or so, about 6,000 (1.7%) were called active. Inconclusive results, whose numbers are uncertain, are shown with a selection of clear calls. No stated cut-off is given here; in the data, active means CPE inhibition above about 20% (passing the limit was not always enough); inconclusive means no clear call, values can overlap the other calls; tested in BHK-21 cells.

Assay: protection of cells from dengue 2 killing – plate reader, single concentration, primary screen (AID 651640);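 further: 0% = median of neutral control wells and 100% = median of positive control wells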
Conditions: DENV2-infected cells, cytopathic effect rescue, at 9.99 µM, stronger effect = higher value

Compound	CPE inhibition
COc1ccc(NC(=O)c2ccc3[nH]c(C)c(C)c3c2)c(OC)c1	inactive: -0.592%
CSc1ccc(Cn2c(C)c(C(=O)NCc3cccc(C)c3)sc2=O)cc1	inconclusive: 41.4%
O=C(COC(=O)CCc1ccccc1)NC(c1ccccc1)c1ccccc1	inconclusive: 62.6%
O=C(C[C@H]1C[C@@H]2c3cc(NC(=O)C4CCC4)ccc3O[C@@H]2[C@H](CO)O1)NCc1ccccn1	inactive: -3.1%
CCNC(=O)c1cc2c(c(-c3cccc(-c4ccncc4)c3)n1)[C@@H](CCO)N(S(=O)(=O)CC)C2	active: 51.4%
C[C@@H]1CN([C@@H](C)CO)C(=O)c2cc(NC(=O)Nc3cccc4ccccc34)ccc2O[C@H]1CN(C)C(=O)Nc1ccc(F)cc1	inactive: 3.42%
CC(NS(C)(=O)=O)C(c1cccs1)N1CCN(c2ccc(F)cc2)CC1 (configuration not stated)	inactive: -1.08%
CCn1cc(C(=O)N[C@@H](C)C(=O)NCCO)c(=O)c2cc3c(cc21)OCO3	inconclusive: 34.7%
CCCN(C)C[C@H]1OCCCC[C@H](C)Oc2ccc(NS(=O)(=O)c3ccc(F)cc3)cc2C(=O)N([C@@H](C)CO)C[C@@H]1C	inconclusive: 58.5%
O=S(=O)(c1ccc(F)cc1)N1CC[C@@H]2[C@@H](CO)Nc3ccc(-c4ccc(F)cc4)cc3[C@@H]21	active: 51.1%
Cc1noc(C)c1S(=O)(=O)N(C)C[C@H]1OCCCC[C@H](C)Oc2ccc(NC(=O)Nc3ccccc3)cc2C(=O)N([C@H](C)CO)C[C@H]1C	inactive: -0.133%
Cc1cc(C(=O)O/N=C(\N)c2ccc(C(C)(C)C)cc2)no1	active: 65.2%
COc1ccc(-c2ccc3c(c2)O[C@@H](CN(C)Cc2ccccc2C(=O)O)[C@H](C)CN([C@H](C)CO)S3(=O)=O)cc1	inconclusive: 30.5%
C[C@@H]1CN([C@@H](C)CO)C(=O)c2cc(NC(=O)Nc3ccc4c(c3)OCO4)ccc2O[C@H]1CN(C)Cc1ccc(Oc2ccccc2)cc1	inconclusive: 32.2%
CCN1CCN(c2ccc(S(=O)(=O)N3CCCCC3)cc2NC(=O)c2cc3ccccc3o2)CC1	inconclusive: 35.5%
Fc1cccc(F)c1-n1c(CN2CCCCC2)csc1=S	inconclusive: 23%
COc1ccc(NC(=O)N(C)C[C@H]2Oc3ccc(NC(=O)NC(C)C)cc3C(=O)N([C@H](C)CO)C[C@@H]2C)cc1	inconclusive: 27.4%
Cc1cc(C(=O)Nc2cccc3c2O[C@H](CN(C)C(=O)Nc2ccccc2)[C@@H](C)CN([C@H](C)CO)C3=O)n(C)n1	inconclusive: 66.5%
COc1ccc2c3c([nH]c2c1)[C@H](CO)N(C(=O)NC(C)C)CC31CCN(Cc2ccc(F)cc2)CC1	inconclusive: 21.3%
Nc1ncnc2c1ncn2[C@@H]1O[C@H](CO)C[C@H]1O	inconclusive: 71.4%
COCCn1c(SCC(=O)N2CCCCC2)nc2ccccc2c1=O	inconclusive: 20.3%
CN1CCCCN2[C@@H](CO)[C@@H](c3ccc(-c4ccccc4)cc3)[C@@H]2C1	inconclusive: 25.1%
COc1cc(OC)cc(C(=O)O/N=C(\N)c2ccccn2)c1	inconclusive: 37.6%
NC1=NN(c2ccccc2)C(=O)C1	inconclusive: 42.9%

Some of these compounds in order of count of non-hydrogen atoms, ascending.
Compound	CPE inhibition
COCCn1c(SCC(=O)N2CCCCC2)nc2ccccc2c1=O	inconclusive: 20.3%
C[C@@H]1CN([C@@H](C)CO)C(=O)c2cc(NC(=O)Nc3cccc4ccccc34)ccc2O[C@H]1CN(C)C(=O)Nc1ccc(F)cc1	inactive: 3.42%
C[C@@H]1CN([C@@H](C)CO)C(=O)c2cc(NC(=O)Nc3ccc4c(c3)OCO4)ccc2O[C@H]1CN(C)Cc1ccc(Oc2ccccc2)cc1	inconclusive: 32.2%

Going on with the list:

Compound	CPE inhibition
COc1cccc2c(C)cc(N3CCCCCC3)nc12	inconclusive: 23%
COc1ccc2c3c([nH]c2c1)[C@H](CO)N(C(=O)c1ccccc1)CC31CN(S(=O)(=O)c2cccs2)C1	active: 82.1%
CN1CCN(C(=O)C[C@H]2CC[C@@H]3[C@H](COC[C@H](O)CN3CC3CCOCC3)O2)CC1	inconclusive: 40.1%
O=C(c1cc(F)c(F)cc1Cl)N1CCCc2ccccc21	inconclusive: 39%
CC(C)(C)N1C(=O)c2ccc(C(=O)Nc3ccc(O)cc3)cc2C1=O	active: 54.3%
CCOC(=O)c1ccccc1NC1c2ccccc2C(=O)N1c1cc(C)ccn1 (configuration not stated)	inconclusive: 37.6%
Cc1noc(C(=O)NCC2CCCO2)c1Cl (configuration not stated)	inconclusive: 23.9%
CC(=O)Nc1ccc(S(=O)(=O)N2CCC(C(=O)NCCC(=O)NCc3ccncc3)CC2)cc1	inconclusive: 26.4%
COc1cccc(OC)c1-c1cnc(NC(C)=O)cn1	active: 23.9%
O=C(O)CN1C(=O)C2C3C=CC(C2C1=O)C1C(=O)N(CC(=O)O)C(=O)C31 (configuration not stated)	inconclusive: 28.1%
CCc1ccc(-n2c(SCC(=O)N3CCC(C(=O)O)CC3)nnc2-c2ccncc2)cc1	inconclusive: 25%
COc1ccc(CCNC(=S)N2CCN(S(=O)(=O)c3ccc(F)cc3)CC2)cc1	active: 53.1%
C[C@H]1CN([C@@H](C)CO)C(=O)c2cc(C#CC3CC3)cnc2O[C@@H]1CN(C)C	active: 69.1%
C[C@@H]1CN([C@@H](C)CO)C(=O)c2cccc(NS(=O)(=O)c3cn(C)cn3)c2O[C@H]1CN(C)C(=O)NC1CCCCC1	inconclusive: 21.4%
CCOCCCNC(=O)c1cc(C)nn1-c1ccccc1	inconclusive: 41%
O=C(NC1CCCC1)N1CC(=O)N2[C@H](CO)[C@@H](c3ccc(-c4cccc(F)c4)cc3)[C@H]2C1	inactive: 2.82%
C[C@@H]1CCCCO[C@@H](CN(C)C(=O)Nc2ccccc2)[C@@H](C)CN([C@H](C)CO)C(=O)c2cc(NC(=O)CCCCCC(=O)Nc3ccccc3N)ccc2O1	inactive: 0.451%
CC(C)NC(=O)N[C@@H]1C=C[C@H](CC(=O)NCCN2CCCC2)O[C@H]1CO	inconclusive: 34.3%
N#C[C@H]1[C@@H](c2ccc(-c3ccccc3F)cc2)[C@@H](CO)N1C(=O)C1CC1	inactive: -5.5%
COc1cc(OC)cc(C(=O)NC(C(=O)NCCc2ccccn2)C(C)C)c1 (configuration not stated)	inconclusive: 35%
COc1cc(/C=C2\SC(N3CCc4ccccc4C3)=NC2=O)cc(OC)c1OC	inconclusive: 60.4%
COc1cccc(NC(=O)CC(c2ccc(OC(C)C)cc2)c2ccccc2OC)c1 (configuration not stated)	inconclusive: 31.6%
Cc1cn(CC(=O)NCc2ccc3c(c2)OCO3)c(=O)[nH]c1=O	inconclusive: 24%
